Reference: PubChem BioAssay AID1487 (National Center for Advancing Translational Sciences (NCATS), 2009)
The list shows a part of the results. Further columns of the screen follow, without active or inactive calls. The list favours compounds with an active or inconclusive main result. The note in brackets gives the kind of curve behind each potency; many fits are weak.

Test: qHTS Assay for Modulators of Lamin A Splicing
Conditions: HeLa LMNA splicing GFP/RFP minigene ratio, 48 h
In short: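 S3 HeLa stable clones carrying a lamin A-EGFP splicing minigene plus DsRed2 were seeded at 600 cells/well in Opti-MEM with 2% FBS, pin-dosed and incubated 48 h at 37°C. Acumen cytometry (488 nm) gave the GFP/RFP total-intensity ratio.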

[1] = measured here: RFP viability control channel
[2] = measured here: GFP splicing reporter channel

Row | Structure (SMILES) | AC50 [1] | AC50 [2]
1 | COc1cc(NC(=O)c2ccc(COc3ccccc3Br)o2)cc(OC)c1OC | 35.5 µM [rising, single point] | –
2 | C=CCn1c(-c2ccc(OC)c(OC)c2)cs/c1=N\c1ccccn1 | 14.1 µM [rising, partial curve] | 12.6 µM [rising, single point]
3 | CN(C)c1ccc(/C=C/c2nnnn2-c2ccccc2)cc1 | 11.2 µM [rising, single point] | –
4 | CCOc1ccc(C(C)=O)cc1CSC(=N)N | – | 0.002 µM [falling, full curve, poor fit]
5 | O=C(CCCCCn1c(=S)[nH]c2cc3c(cc2c1=O)OCO3)N1CCN(C2CCCCC2)CC1 | 35.5 µM [falling, single point] | –
6 | COc1ccc(/C=C/C(=O)N2CCNC(=O)C2)c(OC)c1 | 20 µM [rising, single point] | –
7 | COc1ccc(-c2cc3ccccc3n2CC(O)Cn2nc(C)cc2C)cc1 (configuration not stated) | 7.94 µM [rising, partial curve] | –
8 | O=C(/C=C/c1c(F)cccc1Cl)c1ccc(F)cc1 | 20 µM [falling, partial curve] | 28.2 µM [falling, single point]
9 | CC(=O)O[C@H]1CC[C@H]2[C@@H]3CCc4cc(O)ccc4[C@H]3CC[C@]12C | 31.6 µM [falling, single point] | 22.4 µM [falling, single point]
10 | Cc1cc2ncn(/N=C/c3ccc(-c4ccccc4)o3)c2cc1C | 31.6 µM [falling, single point] | 22.4 µM [falling, single point]
11 | Cn1cnnc1Sc1cc(N2CCN(S(=O)(=O)c3ccc4ccccc4c3)CC2)ccc1[N+](=O)[O-] | 8.91 µM [rising, partial curve] | –
12 | O=C(Cn1ncc(Cl)c(Cl)c1=O)N1CCOCC1 | 12.6 µM [rising, single point] | 10 µM [rising, single point]
13 | Cc1cc(C)n(-c2nc3sc4c(c3c(=O)[nH]2)CCCC4)n1 | 2.51 µM [rising, full curve, poor fit] | –
14 | O=C(Nc1nc(NC(=O)c2ccco2)n(-c2ccccc2)n1)c1ccccc1 | 11.2 µM [rising, partial curve] | –
15 | CS(=O)(=O)N(CC(=O)Nc1ccccc1Sc1ccccc1)c1ccc(F)cc1 | 14.1 µM [rising, single point] | 12.6 µM [rising, single point]
16 | Fc1ccc(-c2nnc(CN3CCN(c4ncc(C(F)(F)F)cc4Cl)CC3)o2)cc1 | 11.2 µM [rising, partial curve] | 12.6 µM [rising, partial curve, poor fit]
17 | [O-][N+](=Nc1ccccc1)c1ccccc1 | – | 0.001 µM [falling, full curve, poor fit]
18 | COc1ccc(Cl)cc1NC(=S)NCCc1c[nH]c2ccccc12 | 11.2 µM [falling, partial curve, poor fit] | –
19 | Cc1ccc(OCCOCCOc2cccc3cccnc23)c(Br)c1 | 14.1 µM [rising, single point] | 11.2 µM [rising, single point]

One compound at a time (already shown). Values in the order: AC50 [1]	AC50 [2]
`COc1ccc(-c2cc3ccccc3n2CC(O)Cn2nc(C)cc2C)cc1` (configuration not stated) is entered as 7.94 µM [rising, partial curve]	–
`C=CCn1c(-c2ccc(OC)c(OC)c2)cs/c1=N\c1ccccn1` is entered as 14.1 µM [rising, partial curve]	12.6 µM [rising, single point]
`O=C(Cn1ncc(Cl)c(Cl)c1=O)N1CCOCC1` is entered as 12.6 µM [rising, single point]	10 µM [rising, single point]

(more compounds)

Row | Structure (SMILES) | AC50 [1] | AC50 [2]
20 | CN(C)/N=C/c1ccc(OS(=O)(=O)c2ccccc2)cc1 | – | 0.00447 µM [rising, full curve, poor fit]
21 | Cc1ccccc1Cn1c(CN2CCC(C(=O)NCc3cccnc3)CC2)cc2ccccc21 | 35.5 µM [falling, single point] | 11.2 µM [falling, single point]
22 | Cc1ccc(C(CCN(Cc2ccccc2)C(=O)c2ccco2)c2ccco2)cc1 (configuration not stated) | 15.8 µM [rising, single point] | 7.94 µM [rising, single point]
23 | N#CC1=C(N)OC2=C(CCc3ccccc32)C1c1ccccc1 (configuration not stated) | 0.891 µM [rising, full curve, poor fit] | –
24 | CCc1ccc(NC(=O)CCn2c(-c3ccc(OC)cc3)cc(C(C)=O)c2C)cc1 | 14.1 µM [rising, partial curve, poor fit] | –
25 | CCOC(=O)N1CCN(C(=O)C2CCN(C(=O)c3cc4sccc4n3CC)CC2)CC1 | 35.5 µM [rising, single point] | 35.5 µM [rising, single point]
26 | COc1cc(OC)c(NC(=O)c2ccoc2C)cc1Cl | 7.94 µM [rising, partial curve, poor fit] | –
27 | COc1ccc(-c2nc(C#N)c(NCc3ccco3)o2)cc1 | 6.31 µM [rising, partial curve, poor fit] | –
28 | CCCC(=O)Nc1ccccc1NC(=O)c1cc(OC)c(OC)c(OC)c1 | 3.98 µM [rising, single point] | –
29 | CCN(CCNC(=O)C1CCN(Cc2nc(-c3ccc(Cl)cc3)oc2C)CC1)c1ccccc1 | 25.1 µM [falling, single point] | 35.5 µM [falling, single point]
30 | O=C(NCCc1c[nH]c2ccccc12)c1ccc(S(=O)(=O)NCc2ccco2)cc1 | 22.4 µM [rising, single point] | –
31 | COc1ccc(OC)c(C(=O)CC2OC(=O)c3ccccc32)c1 (configuration not stated) | – | 35.5 µM [falling, single point]
32 | COc1ccc(/C=N/NC(=O)c2cccc([N+](=O)[O-])c2)cc1OC(=O)c1ccccc1 | 35.5 µM [rising, single point] | –
33 | COc1ccc(C)cc1-n1nnnc1SCc1nc2ccccc2s1 | 20 µM [rising, single point] | 28.2 µM [rising, single point]
34 | CC1=NN(c2cccc(Cl)c2)C(=O)C12CC(C)=C(C)CS2 (configuration not stated) | 14.1 µM [rising, single point] | –
35 | Fc1ccc(Br)cc1C1C=C(c2ccc(Br)s2)Nc2ncnn21 (configuration not stated) | 22.4 µM [rising, partial curve] | –
36 | Cc1cccc(NC(=O)CC23CC4CC(C2)CC(n2nnc(C)n2)(C4)C3)c1 | 14.1 µM [rising, single point] | –
37 | CCN(CC)C(=O)Cn1c(=O)n(-c2ccc(Cl)c(Cl)c2)c(=O)c2c(C)c(C(=O)N(CC)CC)sc21 | – | 0.447 µM [falling, full curve]
38 | CS(=O)(=O)N1CCc2cc(S(=O)(=O)Nc3ccc4c(c3)OCCO4)ccc21 | 7.08 µM [rising, partial curve] | –

Row | Structure (SMILES) | AC50 [1] | AC50 [2]
39 | COc1cc(S(=O)(=O)NC2CCCC2)ccc1F | – | 35.5 µM [falling, single point]
40 | CN(C(=S)Nc1ccc(SC(F)F)cc1)c1ccc(O)cc1 | 25.1 µM [rising, partial curve] | 20 µM [rising, single point]
41 | Cn1nnnc1SCCCNCc1ccc(Cl)cc1 | – | 3.16 µM [rising, partial curve]
42 | CC(C)C(=O)N1CCN(c2ccccc2NC(=S)NC(=O)c2cccs2)CC1 | – | 2.82 µM [rising, full curve]
43 | O=C(NCc1ccc2c(c1)OCO2)c1ccc2c(c1)N(Cc1c(F)cccc1Cl)C(=O)CS2 | 22.4 µM [rising, single point] | –
44 | N#CCCN(Cc1cccnc1)C(=O)c1sc2cc(F)ccc2c1Cl | 12.6 µM [rising, partial curve] | 7.08 µM [rising, partial curve]
45 | Cc1cc(-c2ccccc2)n(-c2cc(N/N=C/c3ccccc3O)ncn2)n1 | 0.708 µM [rising, full curve] | –
46 | O=C(Nc1cccc(Cl)c1)N1CCN(C/C=C/c2ccccc2)CC1 | 12.6 µM [rising, single point] | –
47 | Cc1noc(C)c1COC(=O)c1cc(C)n(-c2ccccc2)c1C | 10 µM [rising, partial curve] | –
48 | CC1CCN(CC(=O)Nc2ccccc2Sc2ccccc2)CC1 | – | 35.5 µM [rising, single point]
49 | COc1ccc(OCC(=O)NCCC2=CCCCC2)c([N+](=O)[O-])c1 | 4.47 µM [rising, partial curve, poor fit] | 0.00316 µM [rising, full curve, poor fit]
50 | CSCc1nc2scc(-c3ccccc3)c2c(=O)[nH]1 | 0.112 µM [rising, full curve, poor fit] | 0.1 µM [rising, full curve]
51 | CC(=O)Nc1ccc(S(=O)(=O)n2cnc3cc(C)c(C)cc32)cc1 | 0.0891 µM [rising, full curve, poor fit] | 0.0891 µM [rising, full curve, poor fit]
52 | COc1ccc(-c2c(C)c3ccc(O)c(CN4CCC(C)CC4)c3oc2=O)cc1OC | 1 µM [rising, partial curve] | 0.282 µM [rising, full curve]
53 | COc1ccc(-c2nc3cnc(N4CCOCC4)nc3n(CCc3ccccc3)c2=O)cc1 | 12.6 µM [falling, single point] | –
54 | CN(c1ccc(C(=O)Nc2ccc(Cl)cn2)cc1)S(=O)(=O)c1ccccc1 | – | 12.6 µM [rising, single point]
55 | O=C(CC1C(=O)NCCN1CC1CCCCC1)NCCc1ccc(F)cc1 (configuration not stated) | 0.0251 µM [falling, full curve, poor fit] | 35.5 µM [falling, single point]
56 | O=C(/C=C/NCc1cccnc1)C(F)(F)C(F)(F)F | 3.16 µM [falling, partial curve] | –
57 | CN(C)CCNC(=O)/C=C/c1cn(-c2ccccc2)nc1-c1cc2ccccc2oc1=O | 35.5 µM [rising, single point] | –
